Data published in the supplement of paper PMC4604168 (melanoma cell lines).
This is one part of the list. Many values rest on one well or one pass, so single values are uncertain.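 The apoptosis fraction was the count of cleaved-PARP antibody-stained nuclei relative to all DNA-stained nuclei, imaged in 1,536-well plates. Screening doses were set so most cells survived, and baseline and induced cleaved-PARP levels vary greatly across cell lines.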

Key:
Experiment in all cases: cleaved PARP positive nuclei fraction relative to DMSO control; melanoma cells; higher = more apoptosis
Details in all cases: library dose: low library concentration; 72 h
501Mel = tested on: 501Mel
A101D = tested on: A101D
A2058 = tested on: A2058
C32 = tested on: C32
CBRC008 = tested on: CBRC008 (line from a melanoma biopsy)
CBRC014 = tested on: CBRC014 (line from a melanoma biopsy)
CBRC016 = tested on: CBRC016 (line from a melanoma biopsy)
CBRC017 = tested on: CBRC017 (line from a melanoma biopsy)
COLO792 = tested on: COLO792
COLO800 = tested on: COLO800
COLO829 = tested on: COLO829
G361 = tested on: G361
IPC-298 = tested on: IPC-298
IST-MEL1 = tested on: IST-MEL1
LB2518-MEL = tested on: LB2518-MEL
LOXIMVI = tested on: LOXIMVI

SMILES | cleaved PARP positive nuclei fraction (501Mel) [%] | cleaved PARP positive nuclei fraction (A101D) [%] | cleaved PARP positive nuclei fraction (A2058) [%] | cleaved PARP positive nuclei fraction (C32) [%] | cleaved PARP positive nuclei fraction (CBRC008) [%] | cleaved PARP positive nuclei fraction (CBRC014) [%] | cleaved PARP positive nuclei fraction (CBRC016) [%] | cleaved PARP positive nuclei fraction (CBRC017) [%] | cleaved PARP positive nuclei fraction (COLO792) [%] | cleaved PARP positive nuclei fraction (COLO800) [%] | cleaved PARP positive nuclei fraction (COLO829) [%] | cleaved PARP positive nuclei fraction (G361) [%] | cleaved PARP positive nuclei fraction (IPC-298) [%] | cleaved PARP positive nuclei fraction (IST-MEL1) [%] | cleaved PARP positive nuclei fraction (LB2518-MEL) [%] | cleaved PARP positive nuclei fraction (LOXIMVI) [%]
CO[C@H]1C[C@@H]2CC[C@@H](C)[C@@](O)(O2)C(=O)C(=O)N2CCCC[C@H]2C(=O)O[C@H]([C@H](C)C[C@@H]2CC[C@@H](OCCO)[C@H](OC)C2)CC(=O)[C@H](C)/C=C(\C)[C@@H](O)[C@@H](OC)C(=O)[C@H](C)C[C@H](C)/C=C/C=C/C=C/1C [everolimus] + Cc1cc([N+](=O)[O-])ccc1NS(=O)(=O)c1cc(Cl)ccc1Cl [FH535] (first compound 0.02 µM, partner dose 1 µM) | 107 | 57.9 | 175 | 99.3 | 599 | 224 | 269 | 745 | 183 | 85.8 | 237 | 152 | 551 | 146 | 150 | 202
O=C(O)[C@@H]1[O][Sb](=[O])([O][Sb]2(=[O])[O][C@H]([C@H](O)CO)[C@H](O)[C@H](C(=O)O)[O]2)[O][C@H]([C@H](O)CO)[C@@H]1O (some centres not stated) [stibogluconate] + COC(=O)c1sccc1S(=O)(=O)Nc1ccc(Nc2ccccc2)cc1OC [GSK0660] (first compound 2 µM, partner dose 1 µM) | 127 | 59.8 | 58.3 | 80.3 | 32.8 | 81.5 | 40.9 | 117 | 104 | 147 | 26.6 | 142 | 194 | 73.9 | 130 | 133
Nc1ncn([C@H]2C[C@H](O)[C@@H](CO)O2)c(=O)n1 [decitabine] + CCCCCCCCCCCC1=C(O)C(=O)C=C(O)C1=O [Embelin] (first compound 0.1 µM, partner dose 1.2 µM) | 130 | 31 | 331 | 105 | 103 | 112 | 162 | 112 | 111 | 156 | 61.8 | 45.6 | 413 | 63.1 | 75.1 | 79.7
CN1CCN(c2ccc3nc(-c4c(N)c5c(F)cccc5[nH]c4=O)[nH]c3c2)CC1 [Dovitinib] + COC(=O)c1sccc1S(=O)(=O)Nc1ccc(Nc2ccccc2)cc1OC [GSK0660] (first compound 0.1 µM, partner dose 1 µM) | 213 | 44.1 | 141 | 134 | 69.3 | 94.2 | 39.8 | 102 | 165 | 104 | 83 | 109 | 88.3 | 183 | 75.6 | 170
CN1CCN(c2ccc3nc(-c4c(N)c5c(F)cccc5[nH]c4=O)[nH]c3c2)CC1 [Dovitinib] + Cn1cc(/C=C2\C(=O)Nc3cccnc32)c2ccccc21 [GW441756] (first compound 0.1 µM, partner dose 0.4 µM) | 76.8 | 22.6 | 148 | 115 | 295 | 112 | 88.9 | 88.6 | 139 | 179 | 53.4 | 170 | 92.3 | 85.9 | 73.5 | 65.7
CS(=O)(=O)CCNCc1ccc(-c2ccc3ncnc(Nc4ccc(OCc5cccc(F)c5)c(Cl)c4)c3c2)o1 [lapatinib] + Cc1cc([N+](=O)[O-])ccc1NS(=O)(=O)c1cc(Cl)ccc1Cl [FH535] (first compound 0.8 µM, partner dose 1 µM) | 108 | 10.9 | 160 | 143 | 431 | 179 | 239 | 354 | 108 | 100 | 54.8 | 93 | 51.5 | 26.3 | 70.9 | 78.7
Nc1nc(F)nc2c1ncn2[C@@H]1O[C@H](CO)[C@@H](O)[C@@H]1O [fludarabine] + COc1cc2ncnc(Nc3ccc(Oc4ccccc4)cc3)c2cc1OC [SrcI1] (first compound 0.2 µM, partner dose 2 µM) | 1200 | 38.2 | 52.7 | 157 | 171 | 96 | 63.8 | 229 | 88 | 40.7 | 117 | 158 | 52.5 | 120 | 57.3 | 59.7
Cc1cc(Nc2cc(N3CCN(C)CC3)nc(/C=C/c3ccccc3)n2)n[nH]1 + c1cc(-c2cnn3cc(-c4ccc(OCCN5CCCCC5)cc4)cnc23)ccn1 [Dorsomorphin] (first compound 0.04 µM, partner dose 0.4 µM) | 85.4 | 22.7 | 70.9 | 94.3 | 148 | 94 | 71.4 | 51.7 | 161 | 44.9 | 65.2 | 103 | 218 | 69.8 | 70 | 98.9
C[C@@H](Oc1cc(-c2cnn(C3CCNCC3)c2)cnc1N)c1c(Cl)ccc(F)c1Cl [Crizotinib] + CCc1ccc(CCOc2ccc(CC3SC(=O)NC3=O)cc2)nc1 [pioglitazone] (first compound 0.2 µM, partner dose 2 µM) | 140 | 22 | 204 | 84.6 | 76.9 | 93.9 | 87.1 | 197 | 71 | 117 | 43.2 | 147 | 182 | 70.2 | 72 | 63.5
Nc1ncn([C@H]2C[C@H](O)[C@@H](CO)O2)c(=O)n1 [decitabine] + CCc1ccc(CCOc2ccc(CC3SC(=O)NC3=O)cc2)nc1 [pioglitazone] (first compound 0.1 µM, partner dose 2 µM) | 72.6 | 65.2 | 123 | 43.7 | 66.9 | 115 | 1130 | 75.7 | 47.1 | 62.2 | 163 | 164 | 159 | 161 | 84.2 | 66.2
Cc1cc(Nc2cc(N3CCN(C)CC3)nc(/C=C/c3ccccc3)n2)n[nH]1 + N#Cc1c(O)c2c(-c3ccc(-c4ccccc4O)cc3)csc2[nH]c1=O [A769662] (first compound 0.04 µM, partner dose 2 µM) | 74.8 | 18.4 | 50 | 47.9 | 20.8 | 85.2 | 73.4 | 161 | 124 | 154 | 146 | 136 | 114 | 74.2 | 68.5 | 350
Cc1cc(Nc2cc(N3CCN(C)CC3)nc(/C=C/c3ccccc3)n2)n[nH]1 + Oc1cc(-c2nc(-c3ccccc3)[nH]c2-c2ccncc2)ccc1Cl [L779450] (first compound 0.04 µM, partner dose 0.2 µM) | 166 | 68.7 | 73.1 | 82.6 | 62.4 | 102 | 61.2 | 68.5 | 79.9 | 78.6 | 77 | 80.7 | 48.4 | 141 | 75.3 | 39.8
Cc1cc(Nc2cc(N3CCN(C)CC3)nc(/C=C/c3ccccc3)n2)n[nH]1 + COc1ccc(-c2ccc3c(N4CCOCC4)nc(N4C[C@@H](C)O[C@@H](C)C4)nc3n2)cc1CO [KU0063794] (first compound 0.04 µM, partner dose 0.02 µM) | 33.6 | 48 | 108 | 91.7 | 190 | 139 | 59.5 | 80.4 | 97.1 | 24.1 | 139 | 114 | 205 | 104 | 46.9 | 40.3
Cn1c(=O)n(-c2ccc(C(C)(C)C#N)cc2)c2c3cc(-c4cnc5ccccc5c4)ccc3ncc21 + COC(=O)c1sccc1S(=O)(=O)Nc1ccc(Nc2ccccc2)cc1OC [GSK0660] (first compound 0.004 µM, partner dose 1 µM) | 73.5 | 21.1 | 43.3 | 144 | 46.6 | 101 | 58.3 | 102 | 137 | 134 | 267 | 124 | 384 | 81.1 | 61.6 | 39
C=C(c1ccc(C(=O)O)cc1)c1cc2c(cc1C)C(C)(C)CCC2(C)C [Bexarotene] + O=S(=O)(c1ccccc1)N(CC(F)(F)F)c1ccc(C(O)(C(F)(F)F)C(F)(F)F)cc1 [T0901317] (first compound 2 µM, partner dose 1.4 µM) | 89.3 | 13.5 | 75.9 | 161 | 360 | 116 | 318 | 142 | 61.9 | 75.3 | 20.7 | 171 | 56 | 109 | 133 | 67.7
CN1CCN(c2ccc3nc(-c4c(N)c5c(F)cccc5[nH]c4=O)[nH]c3c2)CC1 [Dovitinib] + COc1ccc(COc2ccc(Cc3cnc(N)nc3N)cc2OC)cc1 [GW2580] (first compound 0.1 µM, partner dose 1 µM) | 98.6 | 25 | 165 | 158 | 213 | 88.8 | 66.8 | 92.2 | 113 | 28.4 | 117 | 85.2 | 46.6 | 102 | 77.1 | 108
O=C(O)c1ccc2c(c1)nc(Nc1cccc(Cl)c1)c1ccncc12 + CCN(CC)CCCCNc1ncc2cc(-c3cc(OC)cc(OC)c3)c(NC(=O)NC(C)(C)C)nc2n1 [PD173074] (first compound 0.4 µM, partner dose 0.1 µM) | 64 | 8.87 | 107 | 89.3 | 106 | 115 | 121 | 205 | 162 | 194 | 101 | 184 | 75.7 | 104 | 57.8 | 462

Three neighbouring records already listed:
SMILES | cleaved PARP positive nuclei fraction (501Mel) [%] | cleaved PARP positive nuclei fraction (A101D) [%] | cleaved PARP positive nuclei fraction (A2058) [%] | cleaved PARP positive nuclei fraction (C32) [%] | cleaved PARP positive nuclei fraction (CBRC008) [%] | cleaved PARP positive nuclei fraction (CBRC014) [%] | cleaved PARP positive nuclei fraction (CBRC016) [%] | cleaved PARP positive nuclei fraction (CBRC017) [%] | cleaved PARP positive nuclei fraction (COLO792) [%] | cleaved PARP positive nuclei fraction (COLO800) [%] | cleaved PARP positive nuclei fraction (COLO829) [%] | cleaved PARP positive nuclei fraction (G361) [%] | cleaved PARP positive nuclei fraction (IPC-298) [%] | cleaved PARP positive nuclei fraction (IST-MEL1) [%] | cleaved PARP positive nuclei fraction (LB2518-MEL) [%] | cleaved PARP positive nuclei fraction (LOXIMVI) [%]
C=C(c1ccc(C(=O)O)cc1)c1cc2c(cc1C)C(C)(C)CCC2(C)C [Bexarotene] + O=S(=O)(c1ccccc1)N(CC(F)(F)F)c1ccc(C(O)(C(F)(F)F)C(F)(F)F)cc1 [T0901317] (first compound 2 µM, partner dose 1.4 µM) | 89.3 | 13.5 | 75.9 | 161 | 360 | 116 | 318 | 142 | 61.9 | 75.3 | 20.7 | 171 | 56 | 109 | 133 | 67.7
CN1CCN(c2ccc3nc(-c4c(N)c5c(F)cccc5[nH]c4=O)[nH]c3c2)CC1 [Dovitinib] + COc1ccc(COc2ccc(Cc3cnc(N)nc3N)cc2OC)cc1 [GW2580] (first compound 0.1 µM, partner dose 1 µM) | 98.6 | 25 | 165 | 158 | 213 | 88.8 | 66.8 | 92.2 | 113 | 28.4 | 117 | 85.2 | 46.6 | 102 | 77.1 | 108
O=C(O)c1ccc2c(c1)nc(Nc1cccc(Cl)c1)c1ccncc12 + CCN(CC)CCCCNc1ncc2cc(-c3cc(OC)cc(OC)c3)c(NC(=O)NC(C)(C)C)nc2n1 [PD173074] (first compound 0.4 µM, partner dose 0.1 µM) | 64 | 8.87 | 107 | 89.3 | 106 | 115 | 121 | 205 | 162 | 194 | 101 | 184 | 75.7 | 104 | 57.8 | 462
